# Legend:
# human JAK3 [1] = target: T1, human JAK3 (Homo sapiens, UniProt P52333); experiment: JAK3 kinase inhibition (Table 1 IC50, immune complex kinase assay); type: biochemical; conditions: measured inhibition values for JAK3 kinase
# T1 construct: KL-2 EBV-transformed human lymphoblastoid B cells (native JAK3 kinase assays); endogenous in cells; host or cells: KL-2 EBV-transformed human lymphoblastoid B cell line
# T1 sequence (P52333 1-1124): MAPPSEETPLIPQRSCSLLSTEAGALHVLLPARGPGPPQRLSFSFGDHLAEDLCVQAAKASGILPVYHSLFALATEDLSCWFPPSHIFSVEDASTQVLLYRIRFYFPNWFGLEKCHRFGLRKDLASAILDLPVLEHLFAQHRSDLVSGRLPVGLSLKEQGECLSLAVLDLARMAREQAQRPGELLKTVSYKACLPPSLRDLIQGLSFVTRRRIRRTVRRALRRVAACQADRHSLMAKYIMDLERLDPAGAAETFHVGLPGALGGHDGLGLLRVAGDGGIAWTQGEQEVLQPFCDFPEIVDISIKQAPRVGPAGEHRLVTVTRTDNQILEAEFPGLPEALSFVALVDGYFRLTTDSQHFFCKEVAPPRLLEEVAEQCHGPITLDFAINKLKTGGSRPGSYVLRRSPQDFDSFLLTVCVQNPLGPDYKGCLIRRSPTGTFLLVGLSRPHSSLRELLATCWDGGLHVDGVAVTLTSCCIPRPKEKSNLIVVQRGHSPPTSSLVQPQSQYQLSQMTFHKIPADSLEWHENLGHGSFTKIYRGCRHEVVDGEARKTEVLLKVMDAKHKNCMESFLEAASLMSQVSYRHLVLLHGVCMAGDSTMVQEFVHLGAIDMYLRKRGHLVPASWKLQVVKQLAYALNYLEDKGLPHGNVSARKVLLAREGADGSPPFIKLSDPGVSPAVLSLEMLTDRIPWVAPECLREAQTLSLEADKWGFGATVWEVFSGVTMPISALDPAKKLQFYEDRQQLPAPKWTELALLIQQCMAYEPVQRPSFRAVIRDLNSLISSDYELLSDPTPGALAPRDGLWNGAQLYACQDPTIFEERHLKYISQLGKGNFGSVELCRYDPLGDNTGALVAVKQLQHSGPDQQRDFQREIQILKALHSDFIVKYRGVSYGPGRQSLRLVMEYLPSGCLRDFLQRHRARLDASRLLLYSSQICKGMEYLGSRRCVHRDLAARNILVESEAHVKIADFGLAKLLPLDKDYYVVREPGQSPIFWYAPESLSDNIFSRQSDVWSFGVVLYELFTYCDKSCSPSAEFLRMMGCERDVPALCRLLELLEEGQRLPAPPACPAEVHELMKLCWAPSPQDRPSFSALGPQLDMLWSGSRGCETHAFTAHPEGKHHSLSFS
# Method: Immune Complex Kinase Assays.
# (§1) KL-2 EBV-transformed human lymphoblastoid B cells (native JAK3 kinase assays) or insect ovary cells (recombinant JAK3 kinase assays) were lysed with NP-40 lysis buffer (50 mM Tris, pH 8, 150 mM NaCl, 5 mM EDTA, 1% NP-40, 100 μM sodium orthovanadate, 100 μM sodium molybdate, 8 μg/ml aprotinin, 5 μg/ml leupeptin, and 500 μM PMSF) and centrifuged 10 minutes at 13000×g to remove insoluble material. Samples were immunoprecipitated with antisera prepared against JAK3. The antisera were diluted and immune complexes collected by incubation with 15 μl protein A Sepharose. After 4 washes with NP-40 lysis buffer, the protein A Sepharose beads were washed once in kinase buffer (20 mM MOPS, pH 7.0, 10 mM MgCl2) and resuspended in the same buffer. Reactions were initiated by the addition of 25 μCi γ[^32P] ATP (5000 Ci/mMole) and unlabeled ATP to a final concentration of 5 μM. Reactions were terminated by boiling for 4 min in SDS sample buffer. Samples were run on 9.5% SDS polyacrylamide gels and labeled proteins will be detected by autoradiography. […] For each drug concentration, a kinase activity index (KA) was determined by comparing the kinase activity in phosphorimager units (PIU) to that of the baseline sample. […]
# human JAK3 [2] = target: T1, human JAK3; experiment: Immune complex kinase assay, JAK3 immunoprecipitated from KL2 EBV-transformed lymphoblastoid B cell line; type: biochemical; conditions: JAK3 immunoprecipitated from KL2 cells
# Method: as §1
smiles,measurement,setting,value
"COc1cc2ncnc(Nc3ccc(O)c(Br)c3)c2cc1OC [WHI-P154, 4-(3′-Bromo-4′-hydroxylphenyl)-amino-6,7-dimethoxyquinazoline]",IC50,human JAK3 [1],128 µM
same,IC50,human JAK3 [2],27.9 µM

# Reference: patent publication US6452005B1, “JAK-3 inhibitors for treating allergic disorders” (Parker Hughes Institute, priority 1999, dated 2002)
